The values that follow come from article PMC9437250.

Sequences of proteins named here, by UniProt entry; tags and fusion partners are left off.
UniProt Q01094: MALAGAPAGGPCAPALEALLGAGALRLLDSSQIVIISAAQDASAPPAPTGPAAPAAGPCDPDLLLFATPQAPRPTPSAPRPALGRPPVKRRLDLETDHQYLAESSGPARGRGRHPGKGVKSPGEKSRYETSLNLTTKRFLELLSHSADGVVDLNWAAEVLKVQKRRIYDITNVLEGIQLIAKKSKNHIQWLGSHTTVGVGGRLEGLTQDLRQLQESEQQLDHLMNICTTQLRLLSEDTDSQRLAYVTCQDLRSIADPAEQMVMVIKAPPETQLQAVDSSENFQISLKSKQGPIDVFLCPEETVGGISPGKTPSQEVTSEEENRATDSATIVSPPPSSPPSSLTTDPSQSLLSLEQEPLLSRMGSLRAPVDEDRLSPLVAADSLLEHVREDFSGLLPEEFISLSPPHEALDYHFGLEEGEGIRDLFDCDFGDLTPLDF

No constants are given. Whether binding was seen depends on the method and setting. In cells and extracts the contact can be indirect. Some binding calls cover weakened binding; strength is not graded here.

This assay deals with E2F1 transcription factor (human (endogenous in NCI-H460)) (UniProt Q01094). Description: co-IP; endogenous proteins of NCI-H460 cells; Pierce Classic Magnetic IP/Co-IP Kit; Western blot with antibodies against PRR11 and E2F1; cells with E2F1 knock-down or negative control for 48 h; group without antibody as mock control.

B1: proline rich 11 (PRR11) (protein, UniProt Q96HE9 1-360)
chain: MPKFKQRRRKLKAKAERLFKKKEASHFQSKLITPPPPPPSPERVGISSIDISQSRSWLTSSWNFNFPNIRDAIKLWTNRVWSIYSWCQNCITQSLEVLKDTIFPSRICHRELYSVKQQFCILESKLCKLQEALKTISESSSCPSCGQTCHMSGKLTNVPACVLITPGDSKAVLPPTLPQPASHFPPPPPPPPLPPPPPPLAPVLLRKPSLAKALQAGPLKKDGPMQITVKDLLTVKLKKTQSLDEKRKLIPSPKARNPLVTVSDLQHVTLKPNSKVLSTRVTNVLITPGKSQMDLRKLLRKVDVERSPGGTPLTNKENMETGTGLTPVMTQALRRKFQLAHPRSPTPTLPLSTSSFDEQN
As for B1, the binding entry is given as “binds”.
